Values from PubChem BioAssay AID743448 (Peter MacCallum Cancer Centre, 2014)
This is a random part of the 106 reagents, under one of the conditions tested. 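Calls are per line and drug panel including etoposide, not vorinostat-specific; gene picks needed hits in two or more extra lines with vorinostat versus etoposide.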 Entries without a mark were called inactive. Further read-outs or replicates are left out here. Reagent sequences are not shown.

Assay: 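Find knock-downs giving vorinostat-specific cell death in several colon cancer lines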 (follow-up of hits)
Cells: four human colon cancer cell lines: HCT116-VR (vorinostat-resistant HCT116 derivative), SW480, SW620 and LIM1215
Reagent: siRNA pool against human genes, 40 nM siRNA pool
Duration: drug added two days after transfection, read one day later
Treatment: vorinostat 2.5 µM on one half of each plate, etoposide 5 µM on the other half
Cell line and drug panel: SW480 cells with etoposide
Measurement: 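Caspase luminescence and viability fluorescence, each expressed relative to mock transfection and also as robust z-scores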
Scale: caspase ratio to mock: higher = more caspase activity than mock; viability ratio to mock: higher = more live cells than mock; caspase robust z-score: higher = more caspase activity, more apoptosis
Call rule: 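Hit means caspase ratio to mock at least 1.6, or viability ratio to mock at most 0.75; wells with strong death in the absence of drug get no call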
Calls: active = caspase or viability hit in this panel; inactive = no change, or unhealthy well

| target | caspase ratio to mock | viability ratio to mock | caspase robust z-score |
| --- | --- | --- | --- |
| GATA1 (GATA binding protein 1) | 3.65 (active) | 0.93 | 1.23 |
| DNTTIP2 (deoxynucleotidyltransferase terminal interacting protein 2) | 0.72 | 0.84 | -1.04 |
| UTP3 (UTP3 small subunit processome component) | 0.86 | 0.86 | -0.91 |
| MED28 (mediator complex subunit 28) | 3.13 | 0.78 | 0.82 |
| RGS18 (regulator of G protein signaling 18) | 0.97 | 1.12 | -0.83 |
| OR2W5 | 1.63 (active) | 1.01 | -0.32 |
| TGM5 (transglutaminase 5) | 1.12 | 0.97 | -0.7 |
| MED26 (mediator complex subunit 26) | 6.14 (active) | 0.8 | 3.19 |
| PSMD13 (proteasome 26S subunit, non-ATPase 13) | 1.12 | 0.87 | -0.72 |
| RLN3 (relaxin 3) | 1.83 (active) | 1.04 | -0.19 |
| SERTAD1 (SERTA domain containing 1) | 2.56 (active) | 0.87 | 0.36 |
| AMDHD2 (amidohydrolase domain containing 2) | 3.42 (active) | 0.88 | 1.06 |
| RBM42 (RNA binding motif protein 42) | 0.84 | 0.89 | -0.93 |
| FANCA (FA complementation group A) | 2.41 (active) | 1 | 0.25 |
| AKAP8 (A-kinase anchoring protein 8) | 2.88 (active) | 0.96 | 0.65 |
| NUP133 (nucleoporin 133) | 2.5 (active) | 0.84 | 0.34 |
| MAGOH (mago homolog, exon junction complex subunit) | 1.12 | 0.86 | -0.74 |
| AP5S1 (adaptor related protein complex 5 subunit sigma 1) | 2.49 (active) | 0.59 | 0.39 |
| PCP4 (Purkinje cell protein 4) | 3.46 (active) | 0.78 | 1.08 |
| CNOT3 (CCR4-NOT transcription complex subunit 3) | 4.48 (active) | 0.96 | 1.86 |
| CSE1L (chromosome segregation 1 like) | 4.19 (active) | 1 | 1.64 |
| RWDD2A (RWD domain containing 2A) | 2.17 (active) | 1.06 | 0.08 |
| C1orf210 (chromosome 1 open reading frame 210) | 3.73 (active) | 0.84 | 1.25 |
| KIR2DL1 | 1.41 | 1.21 | -0.5 |
| SCRT2 (scratch family transcriptional repressor 2) | 1.96 (active) | 0.86 | -0.08 |
| EIF2B5 (eukaryotic translation initiation factor 2B subunit epsilon) | 1.11 (active) | 0.64 | -0.74 |
| THAP3 (THAP domain containing 3) | 1.92 (active) | 0.8 | -0.1 |
| VAX1 (ventral anterior homeobox 1) | 1.9 (active) | 0.97 | -0.12 |
| BEGAIN (brain enriched guanylate kinase associated) | 2.12 (active) | 1.08 | 0.06 |
| EIF4A1 (eukaryotic translation initiation factor 4A1) | 0.56 (active) | 0.72 | -1.15 |
| TBC1D20 (TBC1 domain family member 20) | 4.23 | 0.9 | 1.69 |
| NPC1L1 (NPC1 like intracellular cholesterol transporter 1) | 2.63 (active) | 0.9 | 0.44 |
| PUF60 (poly(U) binding splicing factor 60) | 4.29 (active) | 1.01 | 1.68 |
| HSPA6 (heat shock protein family A (Hsp70) member 6) | 3.73 (active) | 0.84 | 1.31 |
| MRPL19 (mitochondrial ribosomal protein L19) | 1.54 | 0.89 | -0.4 |
| CDK10 (cyclin dependent kinase 10) | 2.34 (active) | 0.91 | 0.22 |

Individual results from the entries so far:
Under “viability ratio to mock”, FANCA (FA complementation group A) is entered as 1 (active)
Value for HSPA6 (heat shock protein family A (Hsp70) member 6) in “caspase ratio to mock”: 3.73 (active)
Under “caspase robust z-score”, RGS18 (regulator of G protein signaling 18) reads -0.83
CSE1L (chromosome segregation 1 like), caspase robust z-score → 1.64 (active)

Additional results follow.
| target | caspase ratio to mock | viability ratio to mock | caspase robust z-score |
| --- | --- | --- | --- |
| IRX2-DT (IRX2 divergent transcript) | 4.17 (active) | 0.86 | 1.6 |
| H1-5 (H1.5 linker histone, cluster member) | 3.49 (active) | 0.54 | 1.1 |
| CCNK (cyclin K) | 4.88 (active) | 0.68 | 2.19 |
| THAP1 (THAP domain containing 1) | 1.08 | 1.04 | -0.74 |
| LAD1 (ladinin 1) | 3.83 (active) | 0.8 | 1.34 |
| NFYA (nuclear transcription factor Y subunit alpha) | 1.87 (active) | 0.97 | -0.14 |
| TDP2 (tyrosyl-DNA phosphodiesterase 2) | 2.62 (active) | 1 | 0.44 |
| PNN (pinin, desmosome associated protein) | 3.63 (active) | 0.86 | 1.26 |
| SH3GLB2 (SH3 domain containing GRB2 like, endophilin B2) | 0.84 | 0.92 | -0.94 |
| SAP130 (Sin3A associated protein 130) | 1.72 (active) | 1.04 | -0.26 |
| POLR2G (RNA polymerase II subunit G) | 3.17 (active) | 0.86 | 0.88 |
| EIF2S1 (eukaryotic translation initiation factor 2 subunit alpha) | 1.54 (active) | 0.7 | -0.38 |
| DDX18 (DEAD-box helicase 18) | 0.76 | 0.89 | -1 |
| GPER1 (G protein-coupled estrogen receptor 1) | 2.6 (active) | 0.9 | 0.42 |
| EIF3L (eukaryotic translation initiation factor 3 subunit L) | 1.29 | 1 | -0.59 |
| POLR2I (RNA polymerase II subunit I) | 3.54 (active) | 0.88 | 1.15 |
| PLAG1 (PLAG1 zinc finger) | 3.12 | 0.87 | 0.86 |
| DPPA5 (developmental pluripotency associated 5) | 1.58 | 0.84 | -0.35 |
| NUP93 (nucleoporin 93) | 1.45 | 0.8 | -0.43 |
| DDX19B (DEAD-box helicase 19B) | 4.7 (active) | 0.86 | 2.04 |
| MICALL2 (MICAL like 2) | 3.73 (active) | 1.08 | 1.22 |
| FLII (FLII actin remodeling protein) | 1.61 (active) | 1.09 | -0.34 |
| EIF2B2 (eukaryotic translation initiation factor 2B subunit beta) | 1.48 (active) | 0.65 | -0.46 |
| PSMA7 (proteasome 20S subunit alpha 7) | 1.91 (active) | 0.9 | -0.11 |
| NUP205 (nucleoporin 205) | 2.59 (active) | 0.64 | 0.43 |
| AQR (aquarius intron-binding spliceosomal factor) | 2.97 (active) | 0.56 | 0.73 |
| POLR2L (RNA polymerase II, I and III subunit L) | 1.57 | 0.8 | -0.35 |
